Results deposited as PubChem BioAssay AID652243 (Drosophila RNAi Screening Center, 2013).

Aim: 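Fly genes required for human androgen receptor driven transcription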 (primary screen)
System: Drosophila S2R+ cells
Knock-down reagent: long dsRNA against Drosophila genes
Duration: 72 h (48 h, then 24 h hormone)
Conditions: synthetic androgen R1881 at 10 nM for 24 h
Detection: 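Per-well raw luminescence of the androgen-driven firefly reporter and of the Renilla control, two replicates each, without normalisation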
Reading the numbers: firefly reporter light: higher = more light from androgen-responsive reporter; Renilla control light: higher = more constitutive control signal (cell number, transfection)
Call rule: 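Hit when the log firefly-to-Renilla ratio dropped or increased by a fixed fold versus the mean of GFP or LacZ controls across duplicate plates; lowering cut given as 1.5 and as 3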
Meaning of the calls: active = hit: reporter lowered or raised; inactive = no hit
In all, the deposit lists about 24,000 reagents; this is an unselected part of those with a known target gene and a result. In the full data, 246 (1%) are marked active. 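Plates not normalised; calls are printed but the firefly/Renilla ratio behind them is not deposited; fold cut for lowering reported inconsistently.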 Raw values vary from plate to plate and are shown uncorrected. A number with no mark means an inactive call. The numbers tell different reagents against one gene apart. Not given: the amount of reagent.

For CG40245 (retired record), the values are firefly reporter light, replicate 1 = 1.16e6; firefly reporter light, replicate 2 = 1.12e6; Renilla control light, replicate 1 = 2.92e6; Renilla control light, replicate 2 = 2.13e6. After knock-down of CG15701, the screen gave firefly reporter light, replicate 1 = 26982; firefly reporter light, replicate 2 = 49139; Renilla control light, replicate 1 = 6.27e5; Renilla control light, replicate 2 = 6.27e5. Against CG13594 #1, the values are firefly reporter light, replicate 1 = 4.97e5; firefly reporter light, replicate 2 = 5.13e5; Renilla control light, replicate 1 = 1.39e6; Renilla control light, replicate 2 = 1.47e6. Depletion of CG13594 #2 resulted in: firefly reporter light, replicate 1 = 2.67e5; firefly reporter light, replicate 2 = 1.75e5; Renilla control light, replicate 1 = 6.76e5; Renilla control light, replicate 2 = 4.58e5. TTLL3B (Tubulin tyrosine ligase-like 3B) gave firefly reporter light, replicate 1 = 2.01e5; firefly reporter light, replicate 2 = 1.55e5; Renilla control light, replicate 1 = 1.69e6; Renilla control light, replicate 2 = 1.32e6. For CG4829, the entry reads firefly reporter light, replicate 1 = 1.71e5; firefly reporter light, replicate 2 = 1.46e5; Renilla control light, replicate 1 = 9.86e5; Renilla control light, replicate 2 = 6.47e5.

Silencing of CG34295 gave: firefly reporter light, replicate 1 = 8.91e5; firefly reporter light, replicate 2 = 7.47e5; Renilla control light, replicate 1 = 1.97e6; Renilla control light, replicate 2 = 1.97e6. Against eIF4E1 (eukaryotic translation initiation factor 4E1) #1, the entry reads firefly reporter light, replicate 1 = 8.45e5; firefly reporter light, replicate 2 = 1.05e6; Renilla control light, replicate 1 = 1.08e6; Renilla control light, replicate 2 = 1.07e6. Depletion of eIF4E1 (eukaryotic translation initiation factor 4E1) #2 resulted in: firefly reporter light, replicate 1 = 5.76e5; firefly reporter light, replicate 2 = 3.94e5; Renilla control light, replicate 1 = 3.88e5; Renilla control light, replicate 2 = 3.02e5. For Nplp3 (Neuropeptide-like precursor 3) the deposit lists firefly reporter light, replicate 1 = 3.44e5; firefly reporter light, replicate 2 = 2.52e5; Renilla control light, replicate 1 = 4.48e5; Renilla control light, replicate 2 = 4.35e5. With knock-down of ara (araucan) #1 the results were firefly reporter light, replicate 1 = 6.00e5; firefly reporter light, replicate 2 = 8.67e5; Renilla control light, replicate 1 = 7.57e5; Renilla control light, replicate 2 = 1.20e6. Against ara (araucan) #2, the entry reads firefly reporter light, replicate 1 = 2.23e5; firefly reporter light, replicate 2 = 3.49e5; Renilla control light, replicate 1 = 6.97e5; Renilla control light, replicate 2 = 6.33e5.

Alg13 (Alg13 UDP-N-acetylglucosaminyltransferase subunit) #1 scored firefly reporter light, replicate 1 = 6.91e5; firefly reporter light, replicate 2 = 1.10e6; Renilla control light, replicate 1 = 4.94e5; Renilla control light, replicate 2 = 8.37e5. Alg13 (Alg13 UDP-N-acetylglucosaminyltransferase subunit) #2 gave firefly reporter light, replicate 1 = 9.73e5; firefly reporter light, replicate 2 = 8.14e5; Renilla control light, replicate 1 = 2.05e6; Renilla control light, replicate 2 = 1.36e6. Knock-down of Gr43a (Gustatory receptor 43a) resulted in: firefly reporter light, replicate 1 = 4.28e5; firefly reporter light, replicate 2 = 3.31e5; Renilla control light, replicate 1 = 1.74e6; Renilla control light, replicate 2 = 1.67e6. After knock-down of aop (anterior open) #1 the results were firefly reporter light, replicate 1 = 1.01e6; firefly reporter light, replicate 2 = 1.05e6; Renilla control light, replicate 1 = 1.24e6; Renilla control light, replicate 2 = 1.55e6. After knock-down of aop (anterior open) #2 the results were firefly reporter light, replicate 1 = 2.63e5; firefly reporter light, replicate 2 = 2.75e5; Renilla control light, replicate 1 = 6.28e5; Renilla control light, replicate 2 = 4.47e5. aop (anterior open) #3 scored firefly reporter light, replicate 1 = 8.40e5; firefly reporter light, replicate 2 = 7.09e5; Renilla control light, replicate 1 = 1.40e6; Renilla control light, replicate 2 = 1.28e6.

Knock-down of Ptx1 #1 came out at: firefly reporter light, replicate 1 = 1.35e5; firefly reporter light, replicate 2 = 1.21e5; Renilla control light, replicate 1 = 2.08e6; Renilla control light, replicate 2 = 2.80e6. After knock-down of Ptx1 #2 the results were firefly reporter light, replicate 1 = 3.31e5; firefly reporter light, replicate 2 = 4.96e5; Renilla control light, replicate 1 = 6.23e5; Renilla control light, replicate 2 = 7.11e5. CG7881 gave firefly reporter light, replicate 1 = 2.99e5; firefly reporter light, replicate 2 = 2.24e5; Renilla control light, replicate 1 = 1.95e6; Renilla control light, replicate 2 = 1.25e6.

Targets above whose target name begins with P or p (2):
Ptx1 #1 | firefly reporter light, replicate 1 = 1.35e5; firefly reporter light, replicate 2 = 1.21e5; Renilla control light, replicate 1 = 2.08e6; Renilla control light, replicate 2 = 2.80e6
Ptx1 #2 | firefly reporter light, replicate 1 = 3.31e5; firefly reporter light, replicate 2 = 4.96e5; Renilla control light, replicate 1 = 6.23e5; Renilla control light, replicate 2 = 7.11e5
